One substance from article PMC8050238 can be followed below.

Chains of the proteins cited; added tags and fusions are not shown.
UniProt P78347: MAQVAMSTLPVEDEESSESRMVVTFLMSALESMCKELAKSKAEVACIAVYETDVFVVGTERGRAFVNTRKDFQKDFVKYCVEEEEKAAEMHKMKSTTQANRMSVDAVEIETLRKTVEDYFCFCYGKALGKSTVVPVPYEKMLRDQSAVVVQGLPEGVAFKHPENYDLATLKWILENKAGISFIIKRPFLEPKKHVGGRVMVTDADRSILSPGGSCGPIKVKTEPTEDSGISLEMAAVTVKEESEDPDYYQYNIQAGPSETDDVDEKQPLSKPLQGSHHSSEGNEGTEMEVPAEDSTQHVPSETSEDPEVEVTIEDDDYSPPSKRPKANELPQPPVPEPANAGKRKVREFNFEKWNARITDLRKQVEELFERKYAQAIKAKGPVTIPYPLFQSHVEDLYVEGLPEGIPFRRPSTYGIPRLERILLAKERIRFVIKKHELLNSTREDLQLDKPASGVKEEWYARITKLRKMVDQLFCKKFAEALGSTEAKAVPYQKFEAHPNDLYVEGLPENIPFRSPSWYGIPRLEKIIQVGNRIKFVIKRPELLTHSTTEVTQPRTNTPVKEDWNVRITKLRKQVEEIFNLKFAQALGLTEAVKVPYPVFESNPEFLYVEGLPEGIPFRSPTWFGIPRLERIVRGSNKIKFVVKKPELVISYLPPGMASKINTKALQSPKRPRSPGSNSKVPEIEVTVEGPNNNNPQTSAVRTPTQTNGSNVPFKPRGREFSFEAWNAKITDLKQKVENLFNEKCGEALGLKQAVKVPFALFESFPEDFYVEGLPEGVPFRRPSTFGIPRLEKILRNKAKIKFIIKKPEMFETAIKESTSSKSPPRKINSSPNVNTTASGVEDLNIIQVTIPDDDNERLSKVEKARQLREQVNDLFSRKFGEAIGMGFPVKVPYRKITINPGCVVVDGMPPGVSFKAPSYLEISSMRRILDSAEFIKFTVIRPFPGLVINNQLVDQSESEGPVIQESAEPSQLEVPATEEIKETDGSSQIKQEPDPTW
UniProt P78527: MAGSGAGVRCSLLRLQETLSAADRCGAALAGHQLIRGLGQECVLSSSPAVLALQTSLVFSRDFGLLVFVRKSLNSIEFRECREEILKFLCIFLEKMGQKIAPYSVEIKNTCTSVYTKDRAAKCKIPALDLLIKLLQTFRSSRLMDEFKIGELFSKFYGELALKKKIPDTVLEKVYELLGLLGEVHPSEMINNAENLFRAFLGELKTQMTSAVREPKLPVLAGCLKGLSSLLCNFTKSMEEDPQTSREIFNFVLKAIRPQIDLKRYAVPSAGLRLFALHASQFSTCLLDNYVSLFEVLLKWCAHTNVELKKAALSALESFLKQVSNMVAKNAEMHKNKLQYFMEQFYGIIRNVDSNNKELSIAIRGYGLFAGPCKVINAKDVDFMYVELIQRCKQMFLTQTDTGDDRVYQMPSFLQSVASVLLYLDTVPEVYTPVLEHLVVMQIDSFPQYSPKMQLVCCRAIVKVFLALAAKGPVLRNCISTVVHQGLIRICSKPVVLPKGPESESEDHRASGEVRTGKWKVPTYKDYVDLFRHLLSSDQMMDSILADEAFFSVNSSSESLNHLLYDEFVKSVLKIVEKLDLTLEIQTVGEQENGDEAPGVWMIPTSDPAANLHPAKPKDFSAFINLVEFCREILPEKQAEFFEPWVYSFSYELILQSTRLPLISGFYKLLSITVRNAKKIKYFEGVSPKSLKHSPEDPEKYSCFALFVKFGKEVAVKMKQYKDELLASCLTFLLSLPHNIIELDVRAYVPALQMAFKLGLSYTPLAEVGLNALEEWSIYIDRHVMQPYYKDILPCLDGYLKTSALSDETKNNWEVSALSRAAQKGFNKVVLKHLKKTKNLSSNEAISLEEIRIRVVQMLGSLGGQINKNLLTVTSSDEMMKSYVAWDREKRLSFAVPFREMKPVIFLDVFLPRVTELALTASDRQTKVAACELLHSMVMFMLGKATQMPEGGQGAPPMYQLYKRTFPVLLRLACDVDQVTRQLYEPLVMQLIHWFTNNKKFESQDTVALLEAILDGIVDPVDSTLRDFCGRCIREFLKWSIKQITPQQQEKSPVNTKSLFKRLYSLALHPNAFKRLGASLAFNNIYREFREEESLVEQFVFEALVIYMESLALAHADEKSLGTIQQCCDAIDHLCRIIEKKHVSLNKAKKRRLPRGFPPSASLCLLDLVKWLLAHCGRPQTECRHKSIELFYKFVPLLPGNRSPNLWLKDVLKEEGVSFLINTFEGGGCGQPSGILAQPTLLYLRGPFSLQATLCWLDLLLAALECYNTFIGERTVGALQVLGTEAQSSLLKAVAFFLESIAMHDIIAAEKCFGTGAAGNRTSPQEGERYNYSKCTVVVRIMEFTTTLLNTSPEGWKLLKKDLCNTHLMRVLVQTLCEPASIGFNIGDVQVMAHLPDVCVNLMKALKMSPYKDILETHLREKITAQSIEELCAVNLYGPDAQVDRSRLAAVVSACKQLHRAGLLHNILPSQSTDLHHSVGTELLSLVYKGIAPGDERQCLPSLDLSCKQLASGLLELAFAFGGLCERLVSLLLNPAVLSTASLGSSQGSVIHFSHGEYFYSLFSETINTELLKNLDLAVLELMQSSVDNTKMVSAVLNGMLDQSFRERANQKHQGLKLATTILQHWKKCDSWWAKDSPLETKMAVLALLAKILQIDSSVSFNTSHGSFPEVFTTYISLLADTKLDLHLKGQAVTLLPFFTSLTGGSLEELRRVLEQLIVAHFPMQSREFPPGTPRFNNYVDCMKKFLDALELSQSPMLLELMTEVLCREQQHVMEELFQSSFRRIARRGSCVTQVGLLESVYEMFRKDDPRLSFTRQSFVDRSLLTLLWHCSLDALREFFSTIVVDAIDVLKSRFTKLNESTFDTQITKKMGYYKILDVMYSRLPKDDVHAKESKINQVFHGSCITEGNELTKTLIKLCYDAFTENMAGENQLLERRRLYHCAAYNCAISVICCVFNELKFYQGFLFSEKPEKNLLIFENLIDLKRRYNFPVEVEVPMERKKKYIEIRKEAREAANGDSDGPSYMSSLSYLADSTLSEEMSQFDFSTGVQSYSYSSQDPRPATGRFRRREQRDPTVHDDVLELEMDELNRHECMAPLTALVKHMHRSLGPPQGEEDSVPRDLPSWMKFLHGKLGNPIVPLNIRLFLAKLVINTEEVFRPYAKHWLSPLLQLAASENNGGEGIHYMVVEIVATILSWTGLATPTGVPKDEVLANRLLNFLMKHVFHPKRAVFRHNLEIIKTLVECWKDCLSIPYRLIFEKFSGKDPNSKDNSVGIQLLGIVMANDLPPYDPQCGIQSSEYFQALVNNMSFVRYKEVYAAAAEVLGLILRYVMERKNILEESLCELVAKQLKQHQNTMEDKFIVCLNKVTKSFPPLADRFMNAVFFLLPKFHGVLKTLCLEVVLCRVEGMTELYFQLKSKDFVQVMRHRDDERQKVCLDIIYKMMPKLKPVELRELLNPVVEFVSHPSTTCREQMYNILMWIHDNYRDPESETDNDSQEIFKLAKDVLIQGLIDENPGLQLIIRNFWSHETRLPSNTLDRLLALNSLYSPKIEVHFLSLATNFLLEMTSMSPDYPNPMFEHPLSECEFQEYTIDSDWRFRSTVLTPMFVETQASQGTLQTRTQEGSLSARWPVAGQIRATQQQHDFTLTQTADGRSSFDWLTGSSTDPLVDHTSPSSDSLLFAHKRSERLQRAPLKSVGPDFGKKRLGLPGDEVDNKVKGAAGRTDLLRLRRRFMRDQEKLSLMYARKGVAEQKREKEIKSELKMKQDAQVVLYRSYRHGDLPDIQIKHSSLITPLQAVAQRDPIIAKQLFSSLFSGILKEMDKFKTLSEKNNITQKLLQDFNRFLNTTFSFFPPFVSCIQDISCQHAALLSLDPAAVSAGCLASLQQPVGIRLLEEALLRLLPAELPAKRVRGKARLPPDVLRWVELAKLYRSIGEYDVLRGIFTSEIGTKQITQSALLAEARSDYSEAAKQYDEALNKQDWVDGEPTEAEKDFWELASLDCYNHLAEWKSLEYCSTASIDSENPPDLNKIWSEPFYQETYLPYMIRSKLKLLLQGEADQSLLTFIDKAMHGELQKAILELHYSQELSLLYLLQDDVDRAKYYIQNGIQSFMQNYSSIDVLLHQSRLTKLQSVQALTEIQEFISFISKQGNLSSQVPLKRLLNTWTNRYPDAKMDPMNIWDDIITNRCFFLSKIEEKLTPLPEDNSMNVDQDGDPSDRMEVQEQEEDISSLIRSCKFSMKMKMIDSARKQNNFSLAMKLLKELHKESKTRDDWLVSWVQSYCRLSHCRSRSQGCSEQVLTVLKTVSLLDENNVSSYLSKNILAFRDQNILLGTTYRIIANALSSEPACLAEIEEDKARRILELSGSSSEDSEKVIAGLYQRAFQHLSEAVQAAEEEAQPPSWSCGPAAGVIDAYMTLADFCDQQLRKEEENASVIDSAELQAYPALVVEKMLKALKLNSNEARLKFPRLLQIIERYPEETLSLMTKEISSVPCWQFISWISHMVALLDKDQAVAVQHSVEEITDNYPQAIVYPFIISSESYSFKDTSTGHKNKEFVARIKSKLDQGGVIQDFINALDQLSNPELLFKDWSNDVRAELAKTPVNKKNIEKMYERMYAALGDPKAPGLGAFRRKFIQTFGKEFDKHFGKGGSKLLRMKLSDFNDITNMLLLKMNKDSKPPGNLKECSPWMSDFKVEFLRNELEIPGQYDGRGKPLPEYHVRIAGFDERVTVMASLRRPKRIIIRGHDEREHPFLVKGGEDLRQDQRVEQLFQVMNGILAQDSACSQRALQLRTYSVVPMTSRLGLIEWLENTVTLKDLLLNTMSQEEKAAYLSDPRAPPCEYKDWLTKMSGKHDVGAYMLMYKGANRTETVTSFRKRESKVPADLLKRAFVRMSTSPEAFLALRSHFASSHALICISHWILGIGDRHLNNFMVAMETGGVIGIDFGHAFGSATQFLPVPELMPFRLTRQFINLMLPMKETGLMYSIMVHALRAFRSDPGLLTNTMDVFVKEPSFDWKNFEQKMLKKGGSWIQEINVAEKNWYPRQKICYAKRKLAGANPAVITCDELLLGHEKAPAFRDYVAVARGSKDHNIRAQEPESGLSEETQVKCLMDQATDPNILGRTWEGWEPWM

These are yes or no findings as the source states them, for the method shown. Binding seen in cells or lysates may run through a third protein. Here binding means that the protein was enriched with, or labelled near, the bait; the list need not be complete.

For the test, the target named is general transcription factor II-I (GTF2I), Myc-tagged (human) (UniProt P78347). The experiment in a line: affinity purification with mass spectrometry; HEK293T cells transfected with pCMV6-entry-myc-GTF2I, lysed 48 h later (20 mM Tris-Cl, 5 mM EDTA, pH 7.4, 150 mM NaCl, 1% Triton X-100, 10% glycerol); lysate immunoprecipitated with anti-Myc antibody or normal mouse IgG and protein G beads at 4 °C; SDS-PAGE, Coomassie, bands at 120 kDa and above 270 kDa excised, trypsin, LC-MS/MS; three independent experiments.

As to “DNA-dependent protein kinase catalytic subunit (PRKDC) (from UniProt P78527 1-4128)”, the binding result was “binds”.
